We go through 35 targets from the supplement of paper PMC10849652.

Chains of the proteins cited; added tags and fusions are not shown. Lines headed by an entry give the natural chain unless they say otherwise; changes in a name come on top.
UniProt Q9P1W9: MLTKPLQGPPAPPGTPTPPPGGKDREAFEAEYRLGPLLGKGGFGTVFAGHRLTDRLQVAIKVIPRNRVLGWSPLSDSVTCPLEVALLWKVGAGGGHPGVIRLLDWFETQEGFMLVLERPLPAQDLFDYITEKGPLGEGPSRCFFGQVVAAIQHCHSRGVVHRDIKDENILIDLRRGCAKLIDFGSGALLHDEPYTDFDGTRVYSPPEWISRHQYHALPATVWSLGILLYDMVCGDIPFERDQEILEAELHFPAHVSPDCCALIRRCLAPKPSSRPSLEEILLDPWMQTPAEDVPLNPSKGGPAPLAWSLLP
UniProt Q9H7P9: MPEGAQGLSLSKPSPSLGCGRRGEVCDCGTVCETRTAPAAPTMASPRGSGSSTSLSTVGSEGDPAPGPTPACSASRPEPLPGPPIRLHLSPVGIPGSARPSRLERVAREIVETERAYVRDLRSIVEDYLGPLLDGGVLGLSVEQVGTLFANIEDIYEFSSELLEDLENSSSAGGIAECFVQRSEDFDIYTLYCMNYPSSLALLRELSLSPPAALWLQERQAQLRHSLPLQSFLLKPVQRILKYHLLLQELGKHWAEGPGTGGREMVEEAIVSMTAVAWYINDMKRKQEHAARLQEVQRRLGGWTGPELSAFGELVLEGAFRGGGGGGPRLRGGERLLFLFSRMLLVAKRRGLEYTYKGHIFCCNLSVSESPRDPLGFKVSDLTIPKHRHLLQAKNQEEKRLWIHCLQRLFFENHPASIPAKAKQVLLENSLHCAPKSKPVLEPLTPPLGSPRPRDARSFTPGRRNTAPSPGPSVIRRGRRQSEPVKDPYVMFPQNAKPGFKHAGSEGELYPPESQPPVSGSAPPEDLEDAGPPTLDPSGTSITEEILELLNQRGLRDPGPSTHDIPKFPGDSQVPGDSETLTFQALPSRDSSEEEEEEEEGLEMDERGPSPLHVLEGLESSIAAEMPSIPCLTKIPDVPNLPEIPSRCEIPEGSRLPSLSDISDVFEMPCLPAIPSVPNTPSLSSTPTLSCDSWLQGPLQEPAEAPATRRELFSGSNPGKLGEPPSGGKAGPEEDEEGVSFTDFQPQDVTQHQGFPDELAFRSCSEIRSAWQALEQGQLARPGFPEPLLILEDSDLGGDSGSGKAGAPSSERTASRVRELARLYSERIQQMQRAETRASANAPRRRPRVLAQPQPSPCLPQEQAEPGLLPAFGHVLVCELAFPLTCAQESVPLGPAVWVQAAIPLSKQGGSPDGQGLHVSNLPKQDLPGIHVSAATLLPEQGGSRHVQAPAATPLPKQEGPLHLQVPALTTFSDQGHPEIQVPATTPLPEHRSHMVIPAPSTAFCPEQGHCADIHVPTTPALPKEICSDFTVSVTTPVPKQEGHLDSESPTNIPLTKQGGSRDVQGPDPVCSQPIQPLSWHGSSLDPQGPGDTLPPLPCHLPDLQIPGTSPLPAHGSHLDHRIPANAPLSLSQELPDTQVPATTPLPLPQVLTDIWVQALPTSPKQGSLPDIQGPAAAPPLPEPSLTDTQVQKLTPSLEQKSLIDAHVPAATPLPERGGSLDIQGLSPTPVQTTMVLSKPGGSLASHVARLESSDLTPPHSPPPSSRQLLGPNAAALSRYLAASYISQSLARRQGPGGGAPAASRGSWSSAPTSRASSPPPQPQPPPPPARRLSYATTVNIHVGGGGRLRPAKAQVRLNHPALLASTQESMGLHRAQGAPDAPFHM
UniProt Q8N2W9: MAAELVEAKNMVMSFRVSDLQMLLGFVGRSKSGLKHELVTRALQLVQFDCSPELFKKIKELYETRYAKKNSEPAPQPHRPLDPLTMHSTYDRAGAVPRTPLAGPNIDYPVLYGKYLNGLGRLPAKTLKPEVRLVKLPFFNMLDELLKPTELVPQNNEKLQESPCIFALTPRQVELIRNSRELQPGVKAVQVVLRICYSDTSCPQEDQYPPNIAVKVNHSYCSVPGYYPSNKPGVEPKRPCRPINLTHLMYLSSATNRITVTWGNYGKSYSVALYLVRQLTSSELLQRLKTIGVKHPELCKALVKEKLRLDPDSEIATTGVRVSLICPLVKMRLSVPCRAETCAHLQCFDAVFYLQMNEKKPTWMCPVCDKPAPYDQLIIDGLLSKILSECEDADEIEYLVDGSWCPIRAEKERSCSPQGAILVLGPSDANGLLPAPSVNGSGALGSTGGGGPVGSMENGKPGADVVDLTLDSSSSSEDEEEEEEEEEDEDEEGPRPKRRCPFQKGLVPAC
UniProt Q9UPP1: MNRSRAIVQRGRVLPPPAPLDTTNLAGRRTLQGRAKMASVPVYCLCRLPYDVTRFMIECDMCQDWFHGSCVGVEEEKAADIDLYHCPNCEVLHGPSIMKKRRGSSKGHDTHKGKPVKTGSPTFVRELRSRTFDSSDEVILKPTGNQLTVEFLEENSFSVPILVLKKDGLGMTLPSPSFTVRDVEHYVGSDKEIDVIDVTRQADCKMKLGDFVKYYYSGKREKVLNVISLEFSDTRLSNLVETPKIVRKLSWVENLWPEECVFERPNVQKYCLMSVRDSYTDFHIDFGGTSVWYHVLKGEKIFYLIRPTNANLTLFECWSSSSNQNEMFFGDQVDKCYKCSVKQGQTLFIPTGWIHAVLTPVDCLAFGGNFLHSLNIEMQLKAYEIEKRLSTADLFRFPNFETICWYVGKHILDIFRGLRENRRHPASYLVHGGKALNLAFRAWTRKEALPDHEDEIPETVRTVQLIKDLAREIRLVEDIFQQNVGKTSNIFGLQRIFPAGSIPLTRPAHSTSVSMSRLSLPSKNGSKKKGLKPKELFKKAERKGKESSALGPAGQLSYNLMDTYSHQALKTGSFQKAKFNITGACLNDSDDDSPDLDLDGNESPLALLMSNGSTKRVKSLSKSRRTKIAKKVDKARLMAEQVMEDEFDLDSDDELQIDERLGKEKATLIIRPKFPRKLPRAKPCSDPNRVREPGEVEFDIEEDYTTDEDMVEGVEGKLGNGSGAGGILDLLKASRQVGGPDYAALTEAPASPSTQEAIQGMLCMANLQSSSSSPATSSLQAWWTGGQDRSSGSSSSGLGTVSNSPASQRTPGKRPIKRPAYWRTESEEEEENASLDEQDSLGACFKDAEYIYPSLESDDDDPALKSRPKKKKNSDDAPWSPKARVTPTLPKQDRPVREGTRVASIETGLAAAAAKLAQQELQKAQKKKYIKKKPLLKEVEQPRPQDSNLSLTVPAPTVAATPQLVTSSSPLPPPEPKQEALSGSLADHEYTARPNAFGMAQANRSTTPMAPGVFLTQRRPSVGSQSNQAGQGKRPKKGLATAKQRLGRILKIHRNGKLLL
UniProt Q6P5Z2: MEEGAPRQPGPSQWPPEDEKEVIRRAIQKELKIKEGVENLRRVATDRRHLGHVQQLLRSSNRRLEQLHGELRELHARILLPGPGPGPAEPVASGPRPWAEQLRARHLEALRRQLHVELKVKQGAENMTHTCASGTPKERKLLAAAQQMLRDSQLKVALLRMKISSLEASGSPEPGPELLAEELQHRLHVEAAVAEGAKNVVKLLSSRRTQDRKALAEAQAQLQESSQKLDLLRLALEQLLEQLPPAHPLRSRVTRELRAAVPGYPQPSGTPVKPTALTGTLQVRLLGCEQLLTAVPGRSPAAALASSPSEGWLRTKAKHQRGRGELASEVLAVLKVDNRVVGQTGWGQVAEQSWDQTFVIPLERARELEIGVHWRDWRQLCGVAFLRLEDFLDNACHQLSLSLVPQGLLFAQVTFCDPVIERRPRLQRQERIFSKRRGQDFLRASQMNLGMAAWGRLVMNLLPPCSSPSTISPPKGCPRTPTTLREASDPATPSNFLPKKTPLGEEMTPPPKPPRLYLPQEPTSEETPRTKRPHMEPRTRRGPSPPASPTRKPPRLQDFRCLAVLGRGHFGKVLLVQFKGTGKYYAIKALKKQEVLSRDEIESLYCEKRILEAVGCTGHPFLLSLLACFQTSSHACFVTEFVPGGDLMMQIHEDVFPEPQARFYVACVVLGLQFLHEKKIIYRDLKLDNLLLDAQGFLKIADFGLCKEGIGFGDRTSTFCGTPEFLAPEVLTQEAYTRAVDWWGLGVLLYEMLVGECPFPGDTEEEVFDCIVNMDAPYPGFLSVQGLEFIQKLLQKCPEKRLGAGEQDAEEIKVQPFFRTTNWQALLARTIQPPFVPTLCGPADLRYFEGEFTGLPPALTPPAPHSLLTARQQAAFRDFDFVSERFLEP
UniProt Q8IXK0: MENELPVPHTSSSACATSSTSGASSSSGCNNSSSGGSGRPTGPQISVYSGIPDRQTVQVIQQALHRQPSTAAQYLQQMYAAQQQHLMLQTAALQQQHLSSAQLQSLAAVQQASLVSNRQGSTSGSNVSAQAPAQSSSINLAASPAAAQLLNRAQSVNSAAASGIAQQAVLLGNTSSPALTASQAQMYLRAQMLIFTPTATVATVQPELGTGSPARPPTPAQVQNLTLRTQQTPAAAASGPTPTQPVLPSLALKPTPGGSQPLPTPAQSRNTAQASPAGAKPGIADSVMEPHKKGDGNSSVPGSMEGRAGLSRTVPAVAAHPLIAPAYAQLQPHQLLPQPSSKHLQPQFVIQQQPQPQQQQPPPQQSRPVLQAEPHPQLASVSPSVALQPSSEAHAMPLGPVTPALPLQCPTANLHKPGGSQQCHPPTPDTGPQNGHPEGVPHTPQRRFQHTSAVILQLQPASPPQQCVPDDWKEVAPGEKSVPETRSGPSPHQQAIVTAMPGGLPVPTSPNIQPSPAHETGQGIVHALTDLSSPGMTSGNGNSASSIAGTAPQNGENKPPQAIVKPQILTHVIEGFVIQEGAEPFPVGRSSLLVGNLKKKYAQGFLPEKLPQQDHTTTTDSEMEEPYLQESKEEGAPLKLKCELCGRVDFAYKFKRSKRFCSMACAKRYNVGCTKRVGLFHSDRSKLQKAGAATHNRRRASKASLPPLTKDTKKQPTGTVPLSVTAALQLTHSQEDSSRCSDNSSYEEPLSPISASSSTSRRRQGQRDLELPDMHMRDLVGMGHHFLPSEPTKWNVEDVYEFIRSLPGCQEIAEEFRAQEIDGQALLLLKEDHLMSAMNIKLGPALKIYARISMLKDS
UniProt O75925, whole entry, looked up: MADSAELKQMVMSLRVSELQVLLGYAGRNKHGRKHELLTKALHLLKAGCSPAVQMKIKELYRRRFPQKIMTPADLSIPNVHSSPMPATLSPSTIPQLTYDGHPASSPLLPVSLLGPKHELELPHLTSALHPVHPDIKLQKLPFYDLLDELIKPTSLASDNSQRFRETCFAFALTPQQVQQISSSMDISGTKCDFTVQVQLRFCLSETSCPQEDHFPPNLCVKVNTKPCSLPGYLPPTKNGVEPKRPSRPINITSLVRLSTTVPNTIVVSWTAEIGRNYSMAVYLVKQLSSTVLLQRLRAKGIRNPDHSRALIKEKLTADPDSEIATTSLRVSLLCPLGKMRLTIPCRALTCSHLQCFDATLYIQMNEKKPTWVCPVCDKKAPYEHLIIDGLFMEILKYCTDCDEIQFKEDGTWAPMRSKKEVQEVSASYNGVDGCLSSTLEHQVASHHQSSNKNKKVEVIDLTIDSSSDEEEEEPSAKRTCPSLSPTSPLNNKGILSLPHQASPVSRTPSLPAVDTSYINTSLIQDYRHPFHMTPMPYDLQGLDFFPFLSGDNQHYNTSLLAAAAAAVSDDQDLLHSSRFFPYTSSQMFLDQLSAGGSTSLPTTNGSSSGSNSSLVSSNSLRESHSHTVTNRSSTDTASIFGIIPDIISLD
UniProt Q03405, whole entry, looked up: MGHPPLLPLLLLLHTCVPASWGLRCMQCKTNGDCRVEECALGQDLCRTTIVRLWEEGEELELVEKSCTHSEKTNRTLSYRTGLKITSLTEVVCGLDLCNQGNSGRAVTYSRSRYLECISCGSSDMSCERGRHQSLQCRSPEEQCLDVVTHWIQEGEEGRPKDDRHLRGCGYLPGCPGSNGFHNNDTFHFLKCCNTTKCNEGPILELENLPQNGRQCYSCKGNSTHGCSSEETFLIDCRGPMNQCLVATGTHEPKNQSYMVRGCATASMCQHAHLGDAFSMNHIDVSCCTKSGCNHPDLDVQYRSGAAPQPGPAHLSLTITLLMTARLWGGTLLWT
UniProt Q92521: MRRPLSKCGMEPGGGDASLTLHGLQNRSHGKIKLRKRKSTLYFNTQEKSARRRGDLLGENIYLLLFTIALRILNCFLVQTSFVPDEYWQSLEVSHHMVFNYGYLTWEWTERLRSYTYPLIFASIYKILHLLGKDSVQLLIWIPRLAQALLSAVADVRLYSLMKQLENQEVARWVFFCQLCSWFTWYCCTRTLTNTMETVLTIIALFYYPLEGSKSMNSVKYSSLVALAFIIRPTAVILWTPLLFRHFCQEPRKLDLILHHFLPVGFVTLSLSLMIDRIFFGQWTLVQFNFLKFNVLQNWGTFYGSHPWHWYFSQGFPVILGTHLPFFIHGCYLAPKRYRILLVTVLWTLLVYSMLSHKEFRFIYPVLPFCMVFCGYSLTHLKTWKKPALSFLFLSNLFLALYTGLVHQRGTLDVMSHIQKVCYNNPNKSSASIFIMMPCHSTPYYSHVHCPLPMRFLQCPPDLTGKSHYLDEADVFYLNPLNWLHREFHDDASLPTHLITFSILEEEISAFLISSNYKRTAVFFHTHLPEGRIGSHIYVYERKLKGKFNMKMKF

This is one part of the list.

Compound in one assay: C[C@H](C1=CC=C(C=C1)C(=O)NC2=C3C=CNC3=NC=C2)N
The assay is described as follows: log2 fold change, soluble protein after heating vs DMSO (PISA); higher = thermal stabilisation; K562 lysate, 10 uM; active = over 0.2 and 3.5 SD of the protein, either way, in both replicates (recomputed). The method, boiled down:
(§1)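 Log-two fold change in thermal stability relative to solvent controls is reported from duplicates. For each sample, crude K562 extract from dounce-homogenised pellets in PBS pH 7.4 with 1 mM MgCl2, at 1 mg/mL protein, was treated with 10 μM compound for 30 min. Aliquots heated for 3 min across 48°C-58°C were pooled, brought to 0.5% NP-40 at 4°C and cleared at 21,000xg for 90 min. The supernatant was quantified by TMTpro 16plex LC-MS/MS with channel sums equalised.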
Regarding PIGBOS1, A0A0B4J2F0, the log2 fold change was inactive: 0.236.

As for PKMYT1 (UniProt Q99640), the log2 fold change was inactive: 0.012.

PIM2 (UniProt Q9P1W9): the log2 fold change was inactive: 0.006.

Take PLEKHG2 (UniProt Q9H7P9): the log2 fold change was inactive: 0.046.

Take PIAS4 (UniProt Q8N2W9): the log2 fold change is inactive: -0.092.

As for PHF8 (UniProt Q9UPP1), the log2 fold change is inactive: -0.404.

Take PHLPP1 (UniProt O60346): the log2 fold change is inactive: 0.021.

On to PIK3CG (UniProt P48736), for which the log2 fold change is inactive: -0.158.

Regarding PLEKHA2 (UniProt Q9HB19), the log2 fold change is inactive: 0.128.

On to PHF19 isoform 2 (UniProt Q5T6S3), for which the log2 fold change is inactive: -0.029.

With PKN3 (UniProt Q6P5Z2), the log2 fold change was inactive: 0.026.

On to PIM1 isoform 2 (UniProt P11309), for which the log2 fold change was inactive: 0.096.

Take PHC2 isoform 5 (UniProt Q8IXK0): the log2 fold change is inactive: -0.047.

In the case of PIAS1 isoform 2 (UniProt O75925), the log2 fold change is inactive: -0.048.

Turning to PLEKHA3 (UniProt Q9HB20), the log2 fold change was inactive: -0.213.

Regarding PKP4 (UniProt Q99569), the log2 fold change was inactive: -0.154.

On to PLEC isoform 3 (UniProt Q15149), for which the log2 fold change was inactive: -0.082.

In the case of PIMREG (UniProt Q9BSJ6), the log2 fold change is inactive: 0.175.

Take PLAUR (UniProt Q03405): the log2 fold change was inactive: -0.05.

In the case of PHETA1 isoform 4 (UniProt Q8N4B1), the log2 fold change was inactive: 0.

Turning to PIGB (UniProt Q92521), the log2 fold change is inactive: -0.045.

Compound in another assay: C[C@H](Nc1ncnc2nc[nH]c12)c1cc2cccc(Cl)c2c(=O)n1-c1ccccc1 [duvelisib]
The assay is described as above. The essentials:
as §1
Regarding PKMYT1 (UniProt Q99640), the log2 fold change is inactive: 0.003.

For PIM2 (UniProt Q9P1W9), the log2 fold change was inactive: 0.01.

For the target PLEKHG2 (UniProt Q9H7P9), the log2 fold change was inactive: -0.161.

As to PITX1 (UniProt P78337), the log2 fold change was inactive: -0.018.

Regarding PIAS4 (UniProt Q8N2W9), the log2 fold change was inactive: 0.039.

For the target PIAS2 (UniProt O75928), the log2 fold change is inactive: 0.075.

Take PIGW (UniProt Q7Z7B1): the log2 fold change is inactive: -0.054.

Turning to PHOX2B (UniProt Q99453), the log2 fold change was inactive: 0.265.

With PLD6 (UniProt Q8N2A8), the log2 fold change is inactive: 0.112.

As for PHLPP1 (UniProt O60346), the log2 fold change was inactive: 0.174.

For PIK3CG (UniProt P48736), the log2 fold change was inactive: 0.183.

Turning to PLEKHA2 (UniProt Q9HB19), the log2 fold change is inactive: -0.103.

Consider PHLDA2 (UniProt Q53GA4), for which the log2 fold change was inactive: -0.021.

For PGM1 isoform 2 (UniProt P36871), the log2 fold change was inactive: -0.394.

For PKN3 (UniProt Q6P5Z2), the log2 fold change is inactive: 0.024.

On to PIK3AP1 (UniProt Q6ZUJ8), for which the log2 fold change is inactive: 0.086.

For the target PIM1 isoform 2 (UniProt P11309), the log2 fold change is inactive: 0.081.

On to PIAS1 isoform 2 (UniProt O75925), for which the log2 fold change was inactive: 0.064.

Consider PLEKHA3 (UniProt Q9HB20), for which the log2 fold change is inactive: 0.039.

For the target PKP4 (UniProt Q99569), the log2 fold change was inactive: 0.046.

As to PLEKHA8 (UniProt Q96JA3), the log2 fold change was inactive: 0.083.

PLAUR (UniProt Q03405): the log2 fold change is inactive: 0.101.

On to PHC1 (UniProt P78364), for which the log2 fold change was inactive: -0.025.

Take PIDD1 (UniProt Q9HB75): the log2 fold change is inactive: -0.291.

Compound in a further assay: Cc1cc(Nc2cc(CN3CCOCC3)c3nc(C)c(Cc4ccc(Cl)cc4F)n3n2)n[nH]1 [gandotinib]
The description is as above. The method, boiled down:
as §1
In the case of PIGBOS1, A0A0B4J2F0, the log2 fold change is inactive: -0.197.

For PKMYT1 (UniProt Q99640), the log2 fold change is inactive: -0.032.

Regarding PIM2 (UniProt Q9P1W9), the log2 fold change was inactive: -0.208.

Take PLEKHG2 (UniProt Q9H7P9): the log2 fold change is inactive: -0.017.

In the case of PIAS4 (UniProt Q8N2W9), the log2 fold change was inactive: 0.128.

Take PHF8 (UniProt Q9UPP1): the log2 fold change was inactive: 0.11.

On to PHLPP1 (UniProt O60346), for which the log2 fold change was inactive: 0.016.

Regarding PIK3CG (UniProt P48736), the log2 fold change was inactive: 0.14.

With PLEKHA2 (UniProt Q9HB19), the log2 fold change was inactive: 0.104.

On to PHF19 isoform 2 (UniProt Q5T6S3), for which the log2 fold change is inactive: -0.093.

For PKN3 (UniProt Q6P5Z2), the log2 fold change is inactive: -0.119.

As to PIM1 isoform 2 (UniProt P11309), the log2 fold change is inactive: -0.121.

For PHC2 isoform 5 (UniProt Q8IXK0), the log2 fold change is inactive: 0.029.

On to PIAS1 isoform 2 (UniProt O75925), for which the log2 fold change is inactive: 0.036.

As to PLEKHA3 (UniProt Q9HB20), the log2 fold change was inactive: 0.029.

PKP4 (UniProt Q99569): the log2 fold change was inactive: 0.026.

With PLEC isoform 3 (UniProt Q15149), the log2 fold change was inactive: -0.225.

With PIMREG (UniProt Q9BSJ6), the log2 fold change was inactive: 0.122.

Turning to PLAUR (UniProt Q03405), the log2 fold change was inactive: 0.123.

For PHETA1 isoform 4 (UniProt Q8N4B1), the log2 fold change was inactive: 0.086.

PIGB (UniProt Q92521): the log2 fold change was inactive: 0.021.

Compound in another assay: Cc1cc(Nc2cc(N3CCN(C)CC3)nc(Sc3ccc(NC(=O)C4CC4)cc3)n2)n[nH]1 [tozasertib]
The description is as above. The method, boiled down: as §1
PKMYT1 (UniProt Q99640): the log2 fold change was inactive: 0.024.

For the target PLEKHG2 (UniProt Q9H7P9), the log2 fold change was inactive: -0.001.

Consider PITX1 (UniProt P78337), for which the log2 fold change was inactive: 0.097.

Regarding PIAS4 (UniProt Q8N2W9), the log2 fold change is inactive: 0.049.

Turning to PHOSPHO2 (UniProt C9JD35), the log2 fold change was inactive: 0.234.

As to PHF8 (UniProt Q9UPP1), the log2 fold change was inactive: -0.324.

With PIAS2 (UniProt O75928), the log2 fold change is inactive: 0.048.

Consider PHOX2B (UniProt Q99453), for which the log2 fold change is inactive: 0.072.

With PLEK (UniProt P08567), the log2 fold change was inactive: 0.026.

Regarding PLCB4 isoform 4 (UniProt Q15147), the log2 fold change was inactive: 0.198.

With PIK3CG (UniProt P48736), the log2 fold change was inactive: -0.038.

Regarding PHF19 isoform 2 (UniProt Q5T6S3), the log2 fold change is inactive: 0.092.

Turning to PGM1 isoform 2 (UniProt P36871), the log2 fold change is inactive: 0.039.

Consider PKN3 (UniProt Q6P5Z2), for which the log2 fold change was inactive: -0.064.

PIK3AP1 (UniProt Q6ZUJ8): the log2 fold change was inactive: -0.144.

In the case of PIM1 isoform 2 (UniProt P11309), the log2 fold change was inactive: 0.046.

On to PHC2 isoform 5 (UniProt Q8IXK0), for which the log2 fold change is inactive: 0.049.

With PKP4 (UniProt Q99569), the log2 fold change is inactive: -0.236.

Take PLEC isoform 3 (UniProt Q15149): the log2 fold change is inactive: 0.122.

As to PLEKHA8 (UniProt Q96JA3), the log2 fold change was inactive: 0.016.

On to PLAUR (UniProt Q03405), for which the log2 fold change was inactive: 0.109.

For the target PIGB (UniProt Q92521), the log2 fold change was inactive: -0.04.

As for PHC1 (UniProt P78364), the log2 fold change is inactive: 0.022.
